Our source for the binding values is paper PMC12317139.

By UniProt entry, the sequences of proteins in these tests, tags left out.
UniProt Q9Z140: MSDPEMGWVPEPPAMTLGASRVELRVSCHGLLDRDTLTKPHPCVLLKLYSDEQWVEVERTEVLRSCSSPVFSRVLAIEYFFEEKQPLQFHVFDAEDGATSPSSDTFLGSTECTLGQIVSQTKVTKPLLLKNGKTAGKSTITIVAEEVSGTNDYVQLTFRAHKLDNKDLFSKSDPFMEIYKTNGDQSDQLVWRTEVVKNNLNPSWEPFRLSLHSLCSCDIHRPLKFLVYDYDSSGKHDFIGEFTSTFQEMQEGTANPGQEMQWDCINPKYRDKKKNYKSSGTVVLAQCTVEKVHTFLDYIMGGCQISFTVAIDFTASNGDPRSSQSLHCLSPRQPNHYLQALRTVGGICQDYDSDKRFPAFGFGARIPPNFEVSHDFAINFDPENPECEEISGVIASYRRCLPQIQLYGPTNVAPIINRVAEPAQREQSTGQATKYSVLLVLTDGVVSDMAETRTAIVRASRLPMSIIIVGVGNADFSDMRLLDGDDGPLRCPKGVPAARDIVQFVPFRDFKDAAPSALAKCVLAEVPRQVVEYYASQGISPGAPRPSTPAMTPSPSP

The assay deals with T1, TRPM3 with a C-terminal RFP tag (TRPM3-RFP) (mouse) (UniProt J9SQF3).
T1 sequence: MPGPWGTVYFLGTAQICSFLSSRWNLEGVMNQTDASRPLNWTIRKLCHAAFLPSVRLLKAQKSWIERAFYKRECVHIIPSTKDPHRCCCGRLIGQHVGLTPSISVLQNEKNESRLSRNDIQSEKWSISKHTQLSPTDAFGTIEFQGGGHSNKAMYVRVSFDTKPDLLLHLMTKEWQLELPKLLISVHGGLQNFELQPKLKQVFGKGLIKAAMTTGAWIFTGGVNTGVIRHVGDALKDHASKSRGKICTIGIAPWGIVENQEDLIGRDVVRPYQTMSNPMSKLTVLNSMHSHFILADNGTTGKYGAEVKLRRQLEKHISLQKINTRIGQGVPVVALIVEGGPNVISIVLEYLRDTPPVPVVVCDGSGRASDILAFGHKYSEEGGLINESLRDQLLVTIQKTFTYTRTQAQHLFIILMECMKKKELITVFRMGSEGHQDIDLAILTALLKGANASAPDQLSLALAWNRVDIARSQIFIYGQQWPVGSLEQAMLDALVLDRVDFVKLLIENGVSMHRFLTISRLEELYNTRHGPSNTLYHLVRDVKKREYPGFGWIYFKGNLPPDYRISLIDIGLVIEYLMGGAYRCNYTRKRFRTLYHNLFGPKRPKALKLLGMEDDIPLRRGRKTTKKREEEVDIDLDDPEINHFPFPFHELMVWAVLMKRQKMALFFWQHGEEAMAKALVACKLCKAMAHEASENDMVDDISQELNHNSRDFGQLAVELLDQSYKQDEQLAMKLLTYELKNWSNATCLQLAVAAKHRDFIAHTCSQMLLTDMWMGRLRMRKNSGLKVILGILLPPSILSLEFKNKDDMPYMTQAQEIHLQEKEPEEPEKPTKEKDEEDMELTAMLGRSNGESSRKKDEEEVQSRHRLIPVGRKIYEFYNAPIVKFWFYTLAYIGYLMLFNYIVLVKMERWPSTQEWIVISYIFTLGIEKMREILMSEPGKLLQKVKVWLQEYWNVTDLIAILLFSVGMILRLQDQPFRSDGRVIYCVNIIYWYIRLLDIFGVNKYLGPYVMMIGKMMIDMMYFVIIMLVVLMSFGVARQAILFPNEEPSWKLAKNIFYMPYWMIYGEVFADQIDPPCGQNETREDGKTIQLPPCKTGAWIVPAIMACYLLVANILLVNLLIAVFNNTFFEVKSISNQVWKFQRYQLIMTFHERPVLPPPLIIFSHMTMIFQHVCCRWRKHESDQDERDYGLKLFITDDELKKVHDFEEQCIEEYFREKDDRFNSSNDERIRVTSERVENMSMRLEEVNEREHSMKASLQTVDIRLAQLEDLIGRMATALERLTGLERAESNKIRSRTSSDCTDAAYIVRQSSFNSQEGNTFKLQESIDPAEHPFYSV
Put plainly: co-IP; HEK293T cells co-transfected; lysate incubated with anti-RFP or anti-Flag antibody (2 μg, 4 °C, 4 h), then Protein A/G PLUS-Agarose overnight at 4 °C; five PBS washes; western blot with anti-Flag / anti-RFP; IgG control. Background: In western blotting, separated proteins are transferred to a membrane and probed.

Results are given in words; binding and its absence hold for the method and conditions named. In cells and extracts the contact can be indirect. Some binding calls cover weakened binding; strength is not graded here. Tags and fused reporters may be left off the sequences shown.

On to “Copine-6 carrying a C-terminal Flag-tag (Copine-6-Flag) (from UniProt Q9Z140 1-557)”, for which the binding entry is on record as “binds”.
